The values that follow come from the supplement of paper PMC12889115.

This is one part of the list. These are raw signals, not scaled to a control.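 First-pass screen: polymyxin B was added at a level that permeabilizes the Salmonella outer membrane while sparing the inner membrane. DMSO wells, with and without polymyxin B, defined maximum growth. Because plates differed from one another, each plate's data were ranked separately and the compounds with the lowest OD600 were carried forward as hits.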

The subject of this assay is Salmonella enterica serovar Typhimurium SL1344. In words: bacterial growth OD600 after 18 h with compound and polymyxin B; higher = more bacterial growth (less inhibition). The settings on record: 50 µM, Mueller-Hinton broth.

Take `CS(=O)(=O)N1CCC(Oc2ccc(C(=O)NCCN3CCCCC3)cc2Cl)CC1`: the “bacterial growth OD600” value (polymyxin B 1 µg/mL) was 1.26.

As to `Cc1cc(C(=O)N(C)C(Cc2ccccc2)C2CCN(C(=O)/C(F)=C/c3ccccc3)CC2)n(C)n1` (stereo not given), the “bacterial growth OD600” value (polymyxin B 0.75 µg/mL) was 0.012.

`COC(=O)c1ccccc1C(=O)N(C)CC1CCCN(CCc2ccc(F)cc2)C1` (stereo not given): the “bacterial growth OD600” value (polymyxin B 1 µg/mL) was 0.829.

As to `CCn1ccnc1CNC(=O)c1cc(COc2ccc(OC)c3ccccc23)on1`, under “polymyxin B 0.75 µg/mL”, the “bacterial growth OD600” value was 0.4.

Consider `C=CCC(=O)N1CCc2c(sc(S(=O)(=O)NCc3ccc(Cl)cc3)c2C(=O)OC)C1`, for which the “bacterial growth OD600” value (polymyxin B 0.75 µg/mL) came out at 0.98.

Consider `COc1ccccc1C1(CC(=O)N2CCCC(C(=O)CCc3ccccc3)C2)CC(=O)N(C)C1=O` (stereo not given), for which, for the setting “polymyxin B 0.75 µg/mL”, the “bacterial growth OD600” value worked out at 0.541.

For `COC(=O)c1ccc(CNCCC2CCC(=O)N2CCn2cncn2)cc1` (stereo not given), the “bacterial growth OD600” value (polymyxin B 0.75 µg/mL) was determined as 0.982.

Regarding `CCOc1cc(CN2CC[C@@H](N3CCC(O)CC3)[C@H](O)C2)ccc1O`, the “bacterial growth OD600” value (polymyxin B 1 µg/mL) was found to be 0.952.

Consider `COc1ccc(/C=C/C(=O)N2CCc3c(cnc(C)c3CNC(=O)Cc3ccsc3)C2)cc1`, for which, where the note is “polymyxin B 0.75 µg/mL”, the “bacterial growth OD600” value worked out at 0.819.

In the case of `C/C=C(\C)CN1Cc2cc(OC)ccc2OC(CC)C1` (stereo not given), the “bacterial growth OD600” value (polymyxin B 0.75 µg/mL) worked out at 0.849.

With `CN(C)C(=O)c1ccc(N2CCC(NCCC3(c4ccccc4)CCOC(C)(C)C3)CC2)cc1` (stereo not given), under “polymyxin B 0.75 µg/mL”, the “bacterial growth OD600” value is 0.799.

With `COCCN1C(=O)CC(CC(=O)N2CCN(c3nc(C)cnc3C)CC2)(c2ccccc2F)C1=O` (stereo not given), the “bacterial growth OD600” value (polymyxin B 0.75 µg/mL) was determined as 0.832.

For the compound `CCCc1ccc2oc(C(=O)N(Cc3nccn3C)C(C)C)c(C)c2c1`, where the note is “polymyxin B 1 µg/mL”, the “bacterial growth OD600” value worked out at 0.527.

Turning to `CC(C)C(=O)N1CCCC(C(=O)Nc2cccc(-c3cc4ccccc4[nH]3)c2)C1` (stereo not given), the “bacterial growth OD600” value (polymyxin B 1 µg/mL) is 1.04.

`CC(=O)c1cc(CN2CCCC(CCC(=O)Nc3ccccc3F)C2)cs1` (stereo not given): under “polymyxin B 1 µg/mL”, the “bacterial growth OD600” value was found to be 0.836.

For `CN(C)c1ncccc1CNS(C)(=O)=O`, the “bacterial growth OD600” value (polymyxin B 1 µg/mL) was found to be 0.912.

On to `COCC(=O)Nc1cc(C(=O)NCC2OCCc3ccccc32)cc2ncn(CCc3ccccc3)c12` (stereo not given), for which the “bacterial growth OD600” value (polymyxin B 0.75 µg/mL) was 0.867.

As to `CCOc1ccc2nc(N3CCC(NCCc4nc(C)c5c(n4)CCC5)CC3)nc(C)c2c1`, the “bacterial growth OD600” value (polymyxin B 0.75 µg/mL) was determined as 0.787.

In the case of `COc1ccccc1CNC(=O)c1c(OC)cc(=O)n2c1CCN(Cc1cc(C)ccc1C)CC2`, the “bacterial growth OD600” value (polymyxin B 0.75 µg/mL) was found to be 0.759.

Consider `COc1ccc2c(c1)OC(C)CN(C(=O)c1c(-c3ccccc3)noc1C)C2` (stereo not given), for which the “bacterial growth OD600” value (polymyxin B 0.75 µg/mL) stood at 0.773.

With `C=CCOc1ccccc1CN1CCC(CC2CC2)(C(=O)OCC)CC1`, where the note is “polymyxin B 1 µg/mL”, the “bacterial growth OD600” value was determined as 0.931.

Turning to `COC(=O)c1ccc(-c2nc(CN3CCCC3c3nonc3C)c(C)o2)cc1` (stereo not given), the “bacterial growth OD600” value (polymyxin B 1 µg/mL) turned out to be 0.806.

With `COc1cccc(CCC2CCCN(C(=O)c3ccccn3)C2)c1` (stereo not given), the “bacterial growth OD600” value (polymyxin B 0.75 µg/mL) stood at 0.823.

As to `COCCn1cnc2cc(NC(=O)C3CCCCC3)cc(C(=O)NCc3cc(F)ccc3C)c21`, the “bacterial growth OD600” value (polymyxin B 0.75 µg/mL) turned out to be 0.874.

For the compound `C/C=C(\C)CN1CCCC(C(=O)Nc2ccccc2-c2ccc(OC)cc2)C1` (stereo not given), for the setting “polymyxin B 1 µg/mL”, the “bacterial growth OD600” value came to 1.19.

On to `CC(C)OCCNC(=O)C1CC(Cc2ccc(F)cc2)=NO1` (stereo not given), for which, under “polymyxin B 0.75 µg/mL”, the “bacterial growth OD600” value worked out at 0.919.

Turning to `COc1ccccc1C1(CC(=O)N(Cc2c(C)nn(C)c2C)C(C)C)CC(=O)N(C2CCCC2)C1=O` (stereo not given), the “bacterial growth OD600” value (polymyxin B 0.75 µg/mL) stood at 0.497.

With `CN(CC1CCN(CCc2cccc(F)c2)CC1)C(=O)CCc1cnn(C)c1`, the “bacterial growth OD600” value (polymyxin B 1 µg/mL) was found to be 1.08.

Consider `COC1CCCN(C(=O)CC2(c3cccc(C(F)(F)F)c3)CC(=O)N(C3CC3)C2=O)C1` (stereo not given), for which, for the setting “polymyxin B 0.75 µg/mL”, the “bacterial growth OD600” value was 0.852.

Regarding `COc1ccc(CN2CCN(Cc3ccc(F)c(F)c3)CC2CCO)cc1C` (stereo not given), under “polymyxin B 1 µg/mL”, the “bacterial growth OD600” value is 0.952.
